Record: PubChem BioAssay AID1259308 (NCATS, 2017)
The deposit covers about 59,000 reagents; shown is a part drawn at random. About 1,510 of them (2.6%) count as active. 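Calls use total luciferase alone and ignore viability, so some active siRNAs may act by altering cell number.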 Entries without a mark were called inactive. Reagents against one gene are numbered here. No sequences are given here.

- Aim: 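Candidate targets for better recombinant protein yield in mammalian cells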 (primary screen)
- Cell system: human HEK293 embryonic kidney cells stably expressing firefly luciferase (HEK-CMV-Luc2-Hygro)
- Knock-down reagent: single siRNA against human genes, 0.8 pmol siRNA per well
- Timing: 72 h
- Measured: 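Reporter luminescence and viable-cell signal on separate replicate plates, given as percent of non-targeting control and median/MAD z-scores, plus per-cell luciferase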
- Reading the numbers: total luciferase, z-score and total luciferase, % of control: higher = more reporter protein produced; luciferase per cell, z-score: higher = more reporter output per viable cell; viable cells, % of control: higher = more viable cells
- Hit rule: 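An siRNA counts as active if its total luciferase robust z-score exceeds 3; genes with two or more such siRNAs out of three were retested with fresh siRNAs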
- Calls: active = raised luciferase; inactive = no rise

Gene | reagent no. | total luciferase, z-score | total luciferase, % of control | luciferase per cell, z-score | viable cells, % of control
TBL3 | 1 | -0.758 | 66.8 | -0.65 | 88.6
TBL3 | 2 | -1.59 | 50.3 | -1.59 | 85.4
TBL3 | 3 | -0.474 | 72.5 | 0.00406 | 80.9
RPS28P4 | 1 | -2.05 | 41.1 | -0.407 | 51.2
RPS28P4 | 2 | -2.05 | 41.1 | -1.12 | 61.6
RPS28P4 | 3 | -3.07 | 20.8 | -3.26 | 54.8
FAM218A | 1 | 0.794 | 97.7 | 0.0496 | 108
FAM218A | 2 | 1.57 | 113 | 1.7 | 80.8
FAM218A | 3 | 0.202 | 85.9 | 0.179 | 91.6
TMEM229A | 1 | 0.647 | 94.8 | 0.632 | 89.7
TMEM229A | 2 | -0.0924 | 80 | 0.444 | 79.6
TMEM229A | 3 | 0.478 | 91.4 | 0.396 | 92
HAX1 | 1 | -0.606 | 69.8 | 0.161 | 74.8
HAX1 | 2 | -0.496 | 72 | 1.4 | 55.7
HAX1 | 3 | 0.0431 | 82.7 | -0.16 | 96.4
BCR | 1 | -1.09 | 60.1 | -1.23 | 92.9
BCR | 2 | 2.11 | 124 | 1.79 | 86.4
BCR | 3 | 0.97 | 101 | 0.0613 | 111
ASL | 1 | 1.63 | 114 | 1.59 | 84
ASL | 2 | 0.613 | 94.1 | 0.602 | 89.7
ASL | 3 | -0.19 | 78.1 | 0.0766 | 85.5
CACNA1D | 1 | -0.383 | 74.3 | -0.0485 | 84.1
CACNA1D | 2 | 0.326 | 88.4 | -0.11 | 102
CACNA1D | 3 | -2.64 | 29.3 | -3.73 | 87.5
WHR1 | 1 | -0.346 | 75 | 0.62 | 71.2
WHR1 | 2 | -0.247 | 77 | 0.3 | 79.5
WHR1 | 3 | 0.0188 | 82.3 | -0.22 | 97.4
PCMTD1 | 1 | -0.564 | 70.7 | -0.908 | 100
PCMTD1 | 2 | -0.32 | 75.5 | -0.161 | 88
PCMTD1 | 3 | -1.53 | 51.4 | -1.64 | 88.5
PGBD2 | 1 | -0.535 | 71.2 | -0.24 | 84.8
PGBD2 | 2 | -1.98 | 42.4 | -1.24 | 65.7
PGBD2 | 3 | 0.894 | 99.7 | 0.322 | 102
IL17RA | 1 | -1.12 | 59.5 | -0.127 | 68.8
IL17RA | 2 | -0.123 | 79.4 | -0.473 | 101
IL17RA | 3 | 2.77 | 137 | 1.9 | 92.9
FOXN4 | 1 | -0.584 | 70.3 | 0.297 | 72.6
FOXN4 | 2 | -0.157 | 78.8 | -0.892 | 111
FOXN4 | 3 | -0.649 | 69 | -0.708 | 92.9
